These are yes or no findings as the source states them, for the method shown. Binding can be weak; no strength is given.
Target: CnA 20-mer peptides of the autoinhibitory domain on the CnA peptide array
Assay: peptide or protein array; array of immobilized CnA 20-mer peptides (whole of CnA) with 3 amino acids offset on cellulose membrane, overlaid with a biotinylated peptide of the cytoplasmic region of syndecan-4 or its pS179 form overnight at 4°C; detected with anti-biotin-HRP; both purified

Binder	binding
RMKKKDEGSYDLGKKPIYKKAPTNEFYA (biotin on the N-terminus)	binds
RMKKKDEGSYDLGKKPIYKKAPTNEFYA (phosphoserine at 179 (pS); biotin on the N-terminus)	binds weakly
